Assay results as given in the supplement of paper PMC10032668.
This is one part of the list. The list holds hits alone, and they repeat only in part.

Chains of the proteins cited; added tags and fusions are not shown.
ASCC3, Q8N3C0, UniProt Q8N3C0, whole entry: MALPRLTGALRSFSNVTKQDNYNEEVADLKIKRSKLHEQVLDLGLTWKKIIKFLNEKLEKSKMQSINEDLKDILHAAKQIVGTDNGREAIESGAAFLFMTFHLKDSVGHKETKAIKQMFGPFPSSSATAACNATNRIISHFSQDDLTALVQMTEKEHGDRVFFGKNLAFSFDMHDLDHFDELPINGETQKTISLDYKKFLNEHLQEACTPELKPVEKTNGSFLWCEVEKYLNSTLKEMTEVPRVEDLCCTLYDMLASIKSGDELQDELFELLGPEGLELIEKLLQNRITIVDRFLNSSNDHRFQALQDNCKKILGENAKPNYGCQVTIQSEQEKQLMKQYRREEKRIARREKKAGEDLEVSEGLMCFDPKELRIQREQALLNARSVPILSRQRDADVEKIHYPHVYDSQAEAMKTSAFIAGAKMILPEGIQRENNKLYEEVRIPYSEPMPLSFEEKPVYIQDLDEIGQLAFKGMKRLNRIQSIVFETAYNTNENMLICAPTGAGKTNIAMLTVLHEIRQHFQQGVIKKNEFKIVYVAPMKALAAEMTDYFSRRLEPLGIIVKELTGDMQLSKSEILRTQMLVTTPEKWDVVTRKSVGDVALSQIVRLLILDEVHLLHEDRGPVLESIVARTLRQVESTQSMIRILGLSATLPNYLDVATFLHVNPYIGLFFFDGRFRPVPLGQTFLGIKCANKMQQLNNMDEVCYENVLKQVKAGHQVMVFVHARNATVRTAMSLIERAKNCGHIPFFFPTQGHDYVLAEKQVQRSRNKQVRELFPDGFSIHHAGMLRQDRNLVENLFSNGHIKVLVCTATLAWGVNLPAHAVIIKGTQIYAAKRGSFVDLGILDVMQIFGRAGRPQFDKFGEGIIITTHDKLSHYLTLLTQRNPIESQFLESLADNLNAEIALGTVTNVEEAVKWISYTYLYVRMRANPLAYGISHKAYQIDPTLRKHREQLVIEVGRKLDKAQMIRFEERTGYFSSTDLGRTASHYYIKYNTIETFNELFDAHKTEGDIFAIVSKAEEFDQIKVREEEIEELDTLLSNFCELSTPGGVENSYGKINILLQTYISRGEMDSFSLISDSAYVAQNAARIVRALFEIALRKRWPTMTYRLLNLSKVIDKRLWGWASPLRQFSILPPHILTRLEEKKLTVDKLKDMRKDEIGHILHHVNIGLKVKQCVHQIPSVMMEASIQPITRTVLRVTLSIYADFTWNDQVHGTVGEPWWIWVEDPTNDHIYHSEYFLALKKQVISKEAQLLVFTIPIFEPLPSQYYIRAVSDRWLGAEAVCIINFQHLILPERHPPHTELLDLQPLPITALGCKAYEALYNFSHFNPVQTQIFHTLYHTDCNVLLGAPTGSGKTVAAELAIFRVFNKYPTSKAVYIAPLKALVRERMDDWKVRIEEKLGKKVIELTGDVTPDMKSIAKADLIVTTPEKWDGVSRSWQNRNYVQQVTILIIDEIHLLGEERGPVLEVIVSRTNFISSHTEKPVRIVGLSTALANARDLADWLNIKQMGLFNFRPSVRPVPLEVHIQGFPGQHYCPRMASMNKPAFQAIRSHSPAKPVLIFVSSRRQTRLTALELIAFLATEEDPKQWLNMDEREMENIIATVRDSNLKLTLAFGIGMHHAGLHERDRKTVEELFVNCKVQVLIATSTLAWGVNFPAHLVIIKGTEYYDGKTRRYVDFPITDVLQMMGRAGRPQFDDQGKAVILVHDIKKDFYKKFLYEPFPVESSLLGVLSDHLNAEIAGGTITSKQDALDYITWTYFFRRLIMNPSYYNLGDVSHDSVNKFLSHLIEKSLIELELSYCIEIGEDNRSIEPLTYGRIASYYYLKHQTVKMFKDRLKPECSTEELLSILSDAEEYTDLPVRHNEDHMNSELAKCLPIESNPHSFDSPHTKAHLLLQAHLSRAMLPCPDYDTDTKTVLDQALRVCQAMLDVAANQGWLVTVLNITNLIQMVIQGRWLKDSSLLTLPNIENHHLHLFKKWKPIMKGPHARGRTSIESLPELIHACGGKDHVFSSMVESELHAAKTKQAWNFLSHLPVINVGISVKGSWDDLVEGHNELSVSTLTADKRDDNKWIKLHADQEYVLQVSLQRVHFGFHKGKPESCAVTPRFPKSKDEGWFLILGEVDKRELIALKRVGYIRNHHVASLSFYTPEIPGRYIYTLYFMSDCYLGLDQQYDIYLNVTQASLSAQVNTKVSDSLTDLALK
COIL, P38432, UniProt P38432, whole entry: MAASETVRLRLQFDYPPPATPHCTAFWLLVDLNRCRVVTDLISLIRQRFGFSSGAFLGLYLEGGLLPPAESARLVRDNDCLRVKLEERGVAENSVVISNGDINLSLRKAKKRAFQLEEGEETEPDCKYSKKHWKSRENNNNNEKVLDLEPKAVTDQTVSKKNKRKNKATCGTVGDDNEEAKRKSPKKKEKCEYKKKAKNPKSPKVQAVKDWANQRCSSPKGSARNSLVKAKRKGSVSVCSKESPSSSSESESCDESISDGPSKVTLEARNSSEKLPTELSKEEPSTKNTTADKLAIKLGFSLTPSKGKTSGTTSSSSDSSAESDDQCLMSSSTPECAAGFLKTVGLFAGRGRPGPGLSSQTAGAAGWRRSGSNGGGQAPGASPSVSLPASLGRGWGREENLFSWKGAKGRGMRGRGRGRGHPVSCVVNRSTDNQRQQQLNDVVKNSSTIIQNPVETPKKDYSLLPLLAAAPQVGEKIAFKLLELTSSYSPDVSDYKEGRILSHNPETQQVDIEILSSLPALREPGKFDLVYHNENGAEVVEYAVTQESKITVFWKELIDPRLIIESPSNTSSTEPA
PPP1CA, P62136, UniProt P62136, whole entry: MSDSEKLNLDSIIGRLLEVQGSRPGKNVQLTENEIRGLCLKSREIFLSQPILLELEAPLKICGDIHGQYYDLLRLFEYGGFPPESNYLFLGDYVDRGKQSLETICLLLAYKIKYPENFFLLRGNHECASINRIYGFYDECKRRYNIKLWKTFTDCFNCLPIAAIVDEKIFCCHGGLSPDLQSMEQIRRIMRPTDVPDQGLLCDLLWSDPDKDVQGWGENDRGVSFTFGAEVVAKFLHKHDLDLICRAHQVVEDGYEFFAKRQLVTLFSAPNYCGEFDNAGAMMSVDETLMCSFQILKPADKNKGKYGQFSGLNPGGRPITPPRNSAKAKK
TPM3, P06753, UniProt P06753, whole entry: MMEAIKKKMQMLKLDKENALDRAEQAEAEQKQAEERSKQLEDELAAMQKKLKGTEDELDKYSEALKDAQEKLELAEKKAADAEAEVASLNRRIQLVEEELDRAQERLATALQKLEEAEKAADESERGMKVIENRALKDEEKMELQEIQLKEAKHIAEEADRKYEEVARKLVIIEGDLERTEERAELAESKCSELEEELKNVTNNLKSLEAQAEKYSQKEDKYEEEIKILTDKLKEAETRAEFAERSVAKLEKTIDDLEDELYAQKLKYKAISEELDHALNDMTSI
IGF2BP3, O00425, UniProt O00425, whole entry: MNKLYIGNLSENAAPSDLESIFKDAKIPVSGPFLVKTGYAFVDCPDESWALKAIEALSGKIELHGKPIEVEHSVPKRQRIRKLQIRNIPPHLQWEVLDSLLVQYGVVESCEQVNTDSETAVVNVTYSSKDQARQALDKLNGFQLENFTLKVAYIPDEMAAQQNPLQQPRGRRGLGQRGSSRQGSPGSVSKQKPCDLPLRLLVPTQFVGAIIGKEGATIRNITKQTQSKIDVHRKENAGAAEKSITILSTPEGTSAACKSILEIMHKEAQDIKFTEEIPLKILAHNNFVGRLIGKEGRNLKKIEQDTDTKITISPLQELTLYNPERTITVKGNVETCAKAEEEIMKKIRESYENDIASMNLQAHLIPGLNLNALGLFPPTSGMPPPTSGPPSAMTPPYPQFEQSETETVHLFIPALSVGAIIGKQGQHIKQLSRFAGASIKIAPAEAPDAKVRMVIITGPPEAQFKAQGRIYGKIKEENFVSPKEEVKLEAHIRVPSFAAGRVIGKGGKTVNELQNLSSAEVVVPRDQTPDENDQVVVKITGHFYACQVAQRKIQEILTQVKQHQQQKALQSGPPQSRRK
SNRPG, P62308, UniProt P62308, whole entry: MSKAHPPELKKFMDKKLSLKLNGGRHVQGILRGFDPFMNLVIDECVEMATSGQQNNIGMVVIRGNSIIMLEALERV

Columns and labels:
Experiment in all cases: PRISMA enrichment of interactor (LFQ) in peptide spot vs all other peptide spots (log2 fold change); higher = stronger / more specific binding of the interactor to the peptide
[1] = target: ACAD9, Q9H845
Protocol: (§1)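 PRISMA: 15-aa overlapping tiles (offset 8 aa) of 60 microproteins, plus SOS1/GLUT1 control peptides, were spot-synthesized on cellulose membranes in triplicate. Membranes were incubated with benzonase-treated HEK293T lysate, and bound proteins were identified by LC-MS/MS with LFQ. Enrichment is the log2 fold change of each protein in one spot versus all other spots. Only interactors passing the significance cutoff are listed.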

[2] = target: ASCC3, Q8N3C0
Protocol: as §1

[3] = target: AURKA, O14965
Protocol: as §1

[4] = target: COIL, P38432
Protocol: as §1

[5] = target: CPS1, P31327
Protocol: as §1

[6] = target: DDX42, Q86XP3
Protocol: as §1

[7] = target: FLOT1, O75955
Protocol: as §1

[8] = target: GLRX3, O76003
Protocol: as §1

[9] = target: IDH3A, P50213
Protocol: as §1

[10] = target: MRPL47, Q9HD33
Protocol: as §1

[11] = target: NEPRO, Q6NW34
Protocol: as §1

[12] = target: PFKP, Q01813
Protocol: as §1

[13] = target: PPP1CA, P62136
Protocol: as §1

[14] = target: PPP1R2, P41236
Protocol: as §1

[15] = target: PSMC1, P62191
Protocol: as §1

[16] = target: RAB3GAP2, Q9H2M9
Protocol: as §1

[17] = target: SERPINH1, P50454
Protocol: as §1

[18] = target: SRPRB, Q9Y5M8
Protocol: as §1

[19] = target: TPM3, P06753
Protocol: as §1

[20] = target: AHCTF1, Q8WYP5
Protocol: as §1

[21] = target: ANKRD17, O75179
Protocol: as §1

[22] = target: ARL1, P40616
Protocol: as §1

[23] = target: ATP5PB, P24539
Protocol: as §1

[24] = target: CHMP5, Q9NZZ3
Protocol: as §1

[25] = target: CRKL, P46109
Protocol: as §1

[26] = target: CTBP2, P56545
Protocol: as §1

[27] = target: DHCR24, Q15392
Protocol: as §1

[28] = target: EBNA1BP2, Q99848
Protocol: as §1

[29] = target: FAM76B, Q5HYJ3
Protocol: as §1

[30] = target: GNAS
Protocol: as §1

[31] = target: GTF2E2, P29084
Protocol: as §1

[32] = target: HMMR, O75330
Protocol: as §1

[33] = target: IGF2BP3, O00425
Protocol: as §1

[34] = target: KIF20A, O95235
Protocol: as §1

[35] = target: LLPH, Q9BRT6
Protocol: as §1

[36] = target: MRPL14, Q6P1L8
Protocol: as §1

[37] = target: MTA1, Q13330
Protocol: as §1

[38] = target: NHP2, Q9NX24
Protocol: as §1

[39] = target: NOC2L, Q9Y3T9
Protocol: as §1

[40] = target: NSA2, O95478
Protocol: as §1

[41] = target: NUP62, P37198
Protocol: as §1

[42] = target: POLR2A, P24928
Protocol: as §1

[43] = target: SACS, Q9NZJ4
Protocol: as §1

[44] = target: SNRPG, P62308
Protocol: as §1

[45] = target: TIMM8B, Q9Y5J9
Protocol: as §1

[46] = target: TKT, P29401
Protocol: as §1

MKASHKTRLIQGVEK [RP3-332B22.1] was tested, and the “PRISMA enrichment of interactor (log2)” value [1] was 8.53, the “PRISMA enrichment of interactor (log2)” value [2] was 9.74 and the “PRISMA enrichment of interactor (log2)” value [3] was 4.5. The “PRISMA enrichment of interactor (log2)” value [4] was 4.56, the “PRISMA enrichment of interactor (log2)” value [5] was 5.2 and the “PRISMA enrichment of interactor (log2)” value [6] was 8.23. The “PRISMA enrichment of interactor (log2)” value [7] was 7.68, the “PRISMA enrichment of interactor (log2)” value [8] was 4.57 and the “PRISMA enrichment of interactor (log2)” value [9] was 4.76. For the same binder, the “PRISMA enrichment of interactor (log2)” value [10] was 4.56, the “PRISMA enrichment of interactor (log2)” value [11] was 4.38 and the “PRISMA enrichment of interactor (log2)” value [12] was 5. The “PRISMA enrichment of interactor (log2)” value [13] was 4.94, the “PRISMA enrichment of interactor (log2)” value [14] was 4.9 and the “PRISMA enrichment of interactor (log2)” value [15] was 4.91. For the same binder, the “PRISMA enrichment of interactor (log2)” value [16] was 4.22, the “PRISMA enrichment of interactor (log2)” value [17] was 6.5 and the “PRISMA enrichment of interactor (log2)” value [18] was 5.82. For the same binder, the “PRISMA enrichment of interactor (log2)” value [19] was 5.95.

LNGKLKSPLGTSVTI [CTC-471J1.11] was tested, and the “PRISMA enrichment of interactor (log2)” value [1] was 4.19, the “PRISMA enrichment of interactor (log2)” value [20] was 7.08 and the “PRISMA enrichment of interactor (log2)” value [21] was 5.6. For the same binder, the “PRISMA enrichment of interactor (log2)” value [22] was 6.01, the “PRISMA enrichment of interactor (log2)” value [23] was 4.66 and the “PRISMA enrichment of interactor (log2)” value [24] was 5.16. For the same binder, the “PRISMA enrichment of interactor (log2)” value [25] was 5.25, the “PRISMA enrichment of interactor (log2)” value [26] was 6.95 and the “PRISMA enrichment of interactor (log2)” value [6] was 5.91. The “PRISMA enrichment of interactor (log2)” value [27] was 9.12, the “PRISMA enrichment of interactor (log2)” value [28] was 4.94 and the “PRISMA enrichment of interactor (log2)” value [29] was 4.61. The “PRISMA enrichment of interactor (log2)” value [30] was 8.72, the “PRISMA enrichment of interactor (log2)” value [31] was 6.3 and the “PRISMA enrichment of interactor (log2)” value [32] was 5.81. For the same binder, the “PRISMA enrichment of interactor (log2)” value [33] was 7.34, the “PRISMA enrichment of interactor (log2)” value [34] was 5.34 and the “PRISMA enrichment of interactor (log2)” value [35] was 5.52. For the same binder, the “PRISMA enrichment of interactor (log2)” value [36] was 8.05, the “PRISMA enrichment of interactor (log2)” value [37] was 8.53 and the “PRISMA enrichment of interactor (log2)” value [38] was 5.04. The “PRISMA enrichment of interactor (log2)” value [39] was 7.69, the “PRISMA enrichment of interactor (log2)” value [40] was 5.84 and the “PRISMA enrichment of interactor (log2)” value [41] was 4.42. The “PRISMA enrichment of interactor (log2)” value [42] was 5.27, the “PRISMA enrichment of interactor (log2)” value [14] was 6.23 and the “PRISMA enrichment of interactor (log2)” value [43] was 6.04. The “PRISMA enrichment of interactor (log2)” value [44] was 5.47, the “PRISMA enrichment of interactor (log2)” value [45] was 5.44 and the “PRISMA enrichment of interactor (log2)” value [46] was 5.29.
